# Article PMC9745799, “Polymyxin Stereochemistry and Its Role in Antibacterial Activity and Outer Membrane Disruption” (ACS Infectious Diseases, 2022)
# Positions of bridges follow the written chain, without caps; N, C: chain ends. Non-standard residues stand in square brackets, D forms with d. Residues, ends and D or L forms follow the SMILES beside them. dDab = NCC[C@@H](N)C(=O)O; Dab = NCC[C@H](N)C(=O)O
# Tested on: LPS from E. coli (O55:B5)
# Test: Isothermal titration calorimetry (ITC), LPS binding
# Conditions: one-site model, assuming 20 kDa molecular weight of LPS, 37 °C
# Protocol: Stock solutions of LPS (10 mg/mL, 0.5 mM) were prepared in 20 mM HEPES at pH 7 by suspension, sonication, and temperature cycling between 4 and 60 °C and stored overnight prior to use. LPS from E. coli (O55:B5) was used. Lipopeptide solutions (1 mM in 20 mM HEPES, pH 7) were titrated into a suspension of LPS (0.020 mM) in the same buffer. Control titrations included the titration of peptide into buffer and buffer into the LPS suspension to determine the corresponding heat of dilution. All binding experiments were performed using a MicroCal PEAQ-ITC Automated microcalorimeter (Malvern Panalytical Ltd., Malvern, UK). The samples were equilibrated to 37 °C prior to measurement. The titrations were conducted at 37 °C under constant stirring at 750 rpm. Each experiment consisted of an initial injection of 0.3 μL followed by 25 separate injections of 1.5 μL into the sample cell of 200 μL. The time between each injection was 180 s, and the measurements were performed with the reference power set at 5 μcal s^–1 and the feedback mode set at “low”. For all calculations performed, an estimated molecular weight of 20 kDa for LPS was applied. The calorimetric data thus obtained were analyzed using MicroCal PEAQ-ITC Analysis Software Version 1.20 (Malvern Panalytical Ltd., Malvern, UK), where the integrated heat signal is corrected for the heat of dilution of the titrant.
row,SMILES,"Peptide/LPS, molar ratio of peptide to LPS preparation"
1,"CC(C)C[C@@H]1NC(=O)[C@@H](Cc2ccccc2)NC(=O)[C@H](CCN)NC(=O)[C@@H](NC(=O)[C@H](CCN)NC(=O)[C@@H](N)[C@@H](C)O)CCNC(=O)[C@H]([C@@H](C)O)NC(=O)[C@H](CCN)NC(=O)[C@H](CCN)NC1=O [PMBN, polymyxin B nonapeptide, reference compound] (H-T[Dab][Dab][Dab][dF]L[Dab][Dab]T; lactam 3-C (inferred); N-terminus assumed)",3.5
2,CC(C)C[C@H]1NC(=O)[C@H](Cc2ccccc2)NC(=O)[C@@H](CCN)NC(=O)[C@H](NC(=O)[C@@H](CCN)NC(=O)[C@H](N)[C@H](C)O)CCNC(=O)[C@@H]([C@H](C)O)NC(=O)[C@@H](CCN)NC(=O)[C@@H](CCN)NC1=O [ent-PMBN] (H-[dT][dDab][dDab][dDab]F[dL][dDab][dDab][dT]; lactam 3-C),4.3
